Measured values published in patent US20190183997A1.
Results are given in words; binding and its absence hold for the method and conditions named. Some binding calls cover weakened binding; strength is not graded here.

The chains behind the UniProt entries cited, without tags or fusion partners. Residues count along the entry.
UniProt Q8I0U8, residues 1607-1699: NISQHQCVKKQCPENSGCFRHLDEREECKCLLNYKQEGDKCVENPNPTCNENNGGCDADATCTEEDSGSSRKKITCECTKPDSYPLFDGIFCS

B1: Human malaria antigen MSP1-specific IgM clone A8P2-B7 (antibody, V domains shown)
VH: QVQLQQWGAGLLKPSETLSLTCAVYGGSFSGYYWTWIRQPPGKGLEWIGEINNSGKTNYNPSLKSRVSISIDTSKNQFSLKVTSVTAADTAVYYCARGPQQHLEPPFDYWGHGTLVTVSS
VL: QSVLTQPPSASGTPGQRVTISCSGSNSNIATNYVCWYQQYPGTAPKPLIYRTDQRPSGVPDRFSGSKSGTSASLAISGLRSEDEADYYCATWDDSLSAWVFGGGTKLTVL
B2: Human malaria antigen MSP1-specific IgM clone A8P3-E4 (antibody, V domains shown)
VH: QVQLQESGPGLVKPSETLSLTCSVSGGSISNSYVSWIRQPPGKGLEWIGYIYYSGGTNYNPSLKSRVTISVDTSKNQFSLKLSSVTAADTAVYYCARGKIYFDYWGQGTLVTVSS
VL: DIQMTQSPSTLSASVGDRVTITCRASQSISSWLAWYQLKPGKAPKLLIYKASSLESGVPSRFSGSGSGTEFTLTISSLQPGDFATYYCQQYNSYALAFGQGTKVEIK
B3: Human malaria antigen MSP1-specific IgG clone A8P3-C10 (antibody, V domains shown)
VH: EVQLLESGGALVQPGGSLRLSCVTSGFTFSSYAMTWVRQAPGKGLEWVSGISSGGFITYYADSVKGRFTISRDNSKNTVYLQMNSLRAEDTALYYCAKGMGSNIYVGFDYWGQGTLVTVSS
VL: EIVLTQSPGTLSLSPGERATLSCRASQIVSSNYLAWYQQKPGQAPRLLIFGASSRATGIPDRFSGSGSDTDFTLTIRRLESEDFAVYYCHQYGSSPGTFGQGTKVEIK

biological target: MSP1-19 protein from P. falciparum (3D7) (Plasmodium falciparum (3D7)) (UniProt Q8I0U8); assay: specificity label of the clone; AMA/MSP1 tetramer sorting and ELISA of recombinant mAbs (Example 2)

Row | binding | Binder
1 | binds | B1
2 | binds | B2
3 | binds | B3
